Reference: US9745266B2 (THE REGENTS OF THE UNIVERSITY OF COLORADO, A BODY CORPORATE, priority 2013, dated 2017)
The name of at least one read-out is uncertain.

Tests used:
MRSA ATCC 33592 = test: Minimum resensitizing concentration (MRC), modified broth microdilution; type: cell-based, S. aureus; settings: meropenem at 4 μg/ml
Experimental: (§1) For these activity tests, AMOXICILLIN® was used in combination with clavulanic acid (a.k.a., AUGMENTIN®), CEFAZOLIN®, and MEROPENEM® (an ultra-broad-spectrum carbapenem). […] To assess activity of each analog as a resistance-modifying agent (RMA), a modified broth microdilution assay was used. Briefly, this involves incubating MRSA with 2-fold serial dilutions of a compound in the presence of each individual antibiotic at its Clinical Laboratory Standards Institutes (CLSI)-defined sensitive concentration. For AMOXICILLIN®/clavulanic acid, this concentration is 4/2 μg/ml (8-fold potentiation), for CEFAZOLIN®, 8 μg/ml (16-fold potentiation) and for MEROPENEM®, 4 μg/ml (4-fold potentiation). Following overnight incubation, plates were examined for bacterial growth, or lack thereof. Compounds were tested at concentrations ranging from 0.5-32 μg/ml. […] The half growth inhibitory concentration (GI50) of each analog was determined by fitting the data using KaleidaGraph (v4.1.1, Synergy Software).
(§2) A modified broth microdilution assay was employed by incubating MRSA (ATCC: BAA-44) with Of1 in 2-fold series dilution in the presence of individual antibiotics at the highest sensitive concentration at 37° C. overnight. […] The MRC values were also determined for another three MRSA strains. […] Furthermore, the mammalian toxicity of Of1 was evaluated using human liver hepatocellular carcinoma HepG2 cell line in CellTiter Glo™ mammalian viability assay (Promega).
(§3) MRC screens were performed as follows: antibiotic MIC values where S. aureus is considered susceptible were determined from the CLSI handbook supplement. Analogs of Of1 were diluted to 5 mg/ml in DMSO. Antibiotic was prepared at twice the intended final concentration in Mueller Hinton Broth (MHB). For amoxicillin/clavulanic acid, the initial concentration was 8/4 μg/ml, for meropenem 8 μg/ml and for cefazolin 16 μg/ml. 50 μl of the antibiotic containing media was added to each well of 96 well plates and 100 μl was added to the top row. 1.28 μl of 5 mg/ml alkaloid solution was added to the top row of each plate to afford a concentration of 64 μg/ml in the top row of each plate and two fold serial dilutions were performed down the columns. Once the plates were prepared, a day culture of MRSA was diluted to OD600 0.002 and 50 μl was added to each well. The final concentration of MRSA was OD600 0.001, the final concentration of amoxicillin/clavulanic acid was 4/2 μg/ml, the final concentration of meropenem was 4 μg/ml the final concentration of cefazolin was 8 μg/ml, and the highest concentration of Of1 analog tested was 32 μg/ml. Plates were incubated overnight at 37° C. with shaking. The MRC value was determined as the concentration of Of1 analog in the presence of antibiotic at which there was no observable overnight growth.

MRSA ATCC BAA-44 = test: as above; type: cell-based, S. aureus
Experimental: as §1, §2, §3

C=C1CCC[C@@H]2Nc3c(F)cc(Br)cc3[C@]12CCNS(=O)(=O)c1ccc(OC(F)F)c(Cl)c1 (relative stereo)
4 µg/mL: MRC meropenem (MRSA ATCC 33592) | MRC amox/clav (MRSA ATCC BAA-44; amoxicillin/clavulanic acid at 4/2 μg/ml) | MRC cefazolin (MRSA ATCC BAA-44; cefazolin at 8 μg/ml) | MRC methicillin (MRSA ATCC BAA-44; in presence of methicillin)
